According to article PMC10710730:
These are yes or no findings as the source states them, for the method shown. In cells and extracts the contact can be indirect. Some entries that bind do so weakly or less than the wild type.

By UniProt entry, the sequences of proteins in these tests, tags left out. Where a name states a change or a piece, a line headed by the entry shows the natural chain unless it says otherwise. Chains listed by the source or under a name are the forms on record and can include a tag or linker. Residues count along the entry.
UniProt P29317, residues 24-976: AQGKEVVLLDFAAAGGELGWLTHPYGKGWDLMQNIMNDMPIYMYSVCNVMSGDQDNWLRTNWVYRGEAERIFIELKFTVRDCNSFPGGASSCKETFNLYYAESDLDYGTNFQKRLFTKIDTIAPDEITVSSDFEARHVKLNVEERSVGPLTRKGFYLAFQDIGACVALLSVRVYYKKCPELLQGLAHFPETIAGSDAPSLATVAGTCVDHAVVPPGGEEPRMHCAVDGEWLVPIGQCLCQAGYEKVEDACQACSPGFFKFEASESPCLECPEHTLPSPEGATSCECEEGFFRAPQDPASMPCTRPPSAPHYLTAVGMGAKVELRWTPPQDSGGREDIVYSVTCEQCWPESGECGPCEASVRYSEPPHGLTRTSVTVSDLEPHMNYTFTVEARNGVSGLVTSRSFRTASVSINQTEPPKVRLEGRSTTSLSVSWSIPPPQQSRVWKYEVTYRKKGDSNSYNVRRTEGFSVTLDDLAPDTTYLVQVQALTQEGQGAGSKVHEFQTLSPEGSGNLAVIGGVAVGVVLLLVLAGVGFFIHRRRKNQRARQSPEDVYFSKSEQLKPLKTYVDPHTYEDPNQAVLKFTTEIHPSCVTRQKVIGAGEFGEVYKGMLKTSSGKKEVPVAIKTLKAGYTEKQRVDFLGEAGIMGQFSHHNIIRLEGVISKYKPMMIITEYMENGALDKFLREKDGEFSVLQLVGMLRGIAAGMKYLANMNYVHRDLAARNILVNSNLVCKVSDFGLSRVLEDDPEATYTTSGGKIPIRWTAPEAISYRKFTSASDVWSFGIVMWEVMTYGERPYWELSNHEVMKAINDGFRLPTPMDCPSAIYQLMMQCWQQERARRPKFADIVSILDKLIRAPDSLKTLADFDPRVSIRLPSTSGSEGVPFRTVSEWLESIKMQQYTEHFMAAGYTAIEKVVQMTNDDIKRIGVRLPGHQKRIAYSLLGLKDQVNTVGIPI
TrkA (tyrosine kinase receptor TrkA, Tropomyosin kinase A), overexpressed in MDA-MB-231 cells (P04629-2, form named): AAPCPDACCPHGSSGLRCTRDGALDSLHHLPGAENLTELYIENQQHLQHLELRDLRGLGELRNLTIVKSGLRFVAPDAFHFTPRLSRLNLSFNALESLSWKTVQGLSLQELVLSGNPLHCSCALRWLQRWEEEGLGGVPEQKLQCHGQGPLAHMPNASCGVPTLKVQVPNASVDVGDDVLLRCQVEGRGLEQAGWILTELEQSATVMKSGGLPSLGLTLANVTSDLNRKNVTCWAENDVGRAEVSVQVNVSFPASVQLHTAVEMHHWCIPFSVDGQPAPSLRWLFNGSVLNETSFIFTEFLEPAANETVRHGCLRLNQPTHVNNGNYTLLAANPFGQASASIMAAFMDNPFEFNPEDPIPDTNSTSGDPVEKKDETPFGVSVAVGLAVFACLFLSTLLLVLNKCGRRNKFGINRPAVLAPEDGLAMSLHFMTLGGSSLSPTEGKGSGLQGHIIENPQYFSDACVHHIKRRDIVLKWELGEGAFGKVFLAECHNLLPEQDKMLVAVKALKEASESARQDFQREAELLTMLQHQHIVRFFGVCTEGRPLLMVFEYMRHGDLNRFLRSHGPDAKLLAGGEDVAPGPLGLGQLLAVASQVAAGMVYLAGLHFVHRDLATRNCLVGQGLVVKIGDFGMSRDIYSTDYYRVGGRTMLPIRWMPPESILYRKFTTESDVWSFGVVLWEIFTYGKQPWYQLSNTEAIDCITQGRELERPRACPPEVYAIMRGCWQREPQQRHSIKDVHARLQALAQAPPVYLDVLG
TrkA kinase dead (KD) protein (triple mutant Y670F-Y674F-Y675F), overexpressed in MDA-MB-231 cells (P04629-2, form named): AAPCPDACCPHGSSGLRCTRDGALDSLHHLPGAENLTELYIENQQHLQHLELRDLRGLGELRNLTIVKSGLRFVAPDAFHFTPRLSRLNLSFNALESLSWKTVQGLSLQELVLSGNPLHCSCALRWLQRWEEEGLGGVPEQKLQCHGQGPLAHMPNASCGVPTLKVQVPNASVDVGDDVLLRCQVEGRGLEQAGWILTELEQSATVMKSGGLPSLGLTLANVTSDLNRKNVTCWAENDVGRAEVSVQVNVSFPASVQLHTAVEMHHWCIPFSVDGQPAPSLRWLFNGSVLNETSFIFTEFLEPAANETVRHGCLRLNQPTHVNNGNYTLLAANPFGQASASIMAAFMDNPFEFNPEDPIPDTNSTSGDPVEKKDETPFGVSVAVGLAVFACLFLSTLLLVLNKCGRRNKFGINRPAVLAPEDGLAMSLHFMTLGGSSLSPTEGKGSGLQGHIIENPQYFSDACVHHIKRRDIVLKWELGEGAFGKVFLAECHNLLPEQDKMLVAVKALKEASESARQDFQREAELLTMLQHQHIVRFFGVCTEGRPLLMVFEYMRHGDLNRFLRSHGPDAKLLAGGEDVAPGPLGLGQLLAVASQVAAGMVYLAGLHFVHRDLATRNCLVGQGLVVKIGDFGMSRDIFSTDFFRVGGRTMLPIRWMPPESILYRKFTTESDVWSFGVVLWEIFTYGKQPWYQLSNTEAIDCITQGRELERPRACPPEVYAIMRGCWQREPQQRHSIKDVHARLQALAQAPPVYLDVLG

Tests used:
[1] = molecular target: EphA2, endogenous in MDA-MB-231 cells (human (endogenous in MDA-MB-231)) (UniProt P29317); assay: proximity ligation; Duolink in Situ-Red kit rabbit/goat on PFA-fixed cells on collagen I coated slides; TrkA/EphA2 red dots per cell counted; cells treated with proNGF (0.5 nM, 0 to 120 min), in MDA-MB-231 TrkA also with p75NTR siRNA
[2] = molecular target: EphA2, endogenous in BT-549 cells (human (endogenous in BT-549)) (UniProt P29317); assay: as above

| binding [1] | binding [2] | Substance |
| --- | --- | --- |
| binds |  | TrkA (tyrosine kinase receptor TrkA, Tropomyosin kinase A), overexpressed in MDA-MB-231 cells (from UniProt P04629-2 33-790) |
|  | binds | TrkA kinase dead (KD) protein (triple mutant Y670F-Y674F-Y675F), expressed in BT-549 cells (from UniProt P04629-2 33-790) (receptor) |
| binds |  | TrkA kinase dead (KD) protein (triple mutant Y670F-Y674F-Y675F), overexpressed in MDA-MB-231 cells (from UniProt P04629-2 33-790) (receptor) |
